No constants are given. Whether binding was seen depends on the method and setting. For some assays here: In cells and extracts the contact can be indirect. Some entries that bind do so weakly or less than the wild type.
Columns and labels:
Myc-tagged Ssu72 = Myc-tagged Ssu72 (UniProt Q9NP77); assay: co-IP; 293T cells transfected with Myc-Ssu72 and HA-eIF2α; 500 μg lysate in IP lysis buffer (20 mM Tris-HCl pH 7.4, 150 mM NaCl, 1% Triton X-100, 1 mM EDTA, 1 mM EGTA) immunoprecipitated with anti-Myc antibody overnight at 4 °C, protein A/G agarose; immunoblot
GST-fused eIF2α = GST-fused eIF2α (UniProt P05198); assay: pull-down; bead bound GST-eIF2α (2 μg) incubated with His-Ssu72 WT (2 μg) in 20 mM Tris-HCl pH 7.4, 100 mM NaCl, 0.5% NP-40, 1 mM EDTA, 1 mM DTT with glutathione beads, 3 h at 4 °C; washed with 150 mM NaCl, 1% NP-40 buffer; both purified

Sequences of proteins named here, by UniProt entry; tags and fusion partners are left off.
UniProt Q9NP77: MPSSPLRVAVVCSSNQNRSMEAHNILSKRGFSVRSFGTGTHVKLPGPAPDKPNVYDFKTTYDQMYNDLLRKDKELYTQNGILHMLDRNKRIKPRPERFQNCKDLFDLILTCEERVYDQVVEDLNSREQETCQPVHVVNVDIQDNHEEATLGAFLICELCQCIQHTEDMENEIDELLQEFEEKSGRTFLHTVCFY
UniProt P05198: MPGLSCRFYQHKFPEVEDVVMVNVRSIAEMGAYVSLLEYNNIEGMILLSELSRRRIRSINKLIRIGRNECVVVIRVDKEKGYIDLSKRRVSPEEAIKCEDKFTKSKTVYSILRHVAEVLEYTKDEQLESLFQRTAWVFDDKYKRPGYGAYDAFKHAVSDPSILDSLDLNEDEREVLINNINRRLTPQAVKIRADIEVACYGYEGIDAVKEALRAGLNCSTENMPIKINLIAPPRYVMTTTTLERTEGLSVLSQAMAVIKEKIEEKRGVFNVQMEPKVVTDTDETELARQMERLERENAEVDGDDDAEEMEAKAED

binding (Myc-tagged Ssu72)	binding (GST-fused eIF2α)	Substance
binds	–	HA-tagged eIF2α (from UniProt P05198 1-315)
–	binds	His-tagged Ssu72 (from UniProt Q9NP77 1-194) (enzyme)
